Test: ODP
Conditions: Table 2

Row | SMILES | ODP
1 | FC(F)OCC(F)(F)C(F)(F)F [Compound 2, 3-(difluoromethoxy)-1,1,1,2,2-pentafluoropropane] | 0
2 | FC(F)OC(C(F)(F)F)C(F)(F)F [Compound 3, 2-(difluoromethoxy)-1,1,1,3,3,3-hexafluoropropane] | 0
3 | FC(F)OCC(F)(F)C(F)F [Compound 1, 3-(difluoromethoxy)-1,1,2,2-tetrafluoropropane] | 0
4 | FC(F)OCC(F)(F)C(F)(F)C(F)(F)F [Compound 4, 4-(difluoromethoxy)-1,1,1,2,2,3,3-heptafluorobutane] | 0

Test: not given
Conditions: primary refrigerant, Table 9; cited from earlier work

Row | SMILES | GWP Primary
5 | C=C(F)C(F)(F)F [Compound R1234yf, 2,3,3,3-tetrafluoropropene] | <1
6 | F/C=C/C(F)(F)F (single isomer, unassigned) [R1234ze(E), trans isomer of 1,3,3,3-tetrafluoropropene] | <1
7 | CCC [Propane, propane] | 3
